Positions count from the first letter of the chain named. Results are given in words; binding and its absence hold for the method and conditions named. In cells and extracts the contact can be indirect. Some binding calls cover weakened binding; strength is not graded here. Sequences can lack the tags named with a protein.
B1: GFP-tagged wild-type human TBK1 (enzyme, UniProt Q9UHD2 1-729)
chain: MQSTSNHLWLLSDILGQGATANVFRGRHKKTGDLFAIKVFNNISFLRPVDVQMREFEVLKKLNHKNIVKLFAIEEETTTRHKVLIMEFCPCGSLYTVLEEPSNAYGLPESEFLIVLRDVVGGMNHLRENGIVHRDIKPGNIMRVIGEDGQSVYKLTDFGAARELEDDEQFVSLYGTEEYLHPDMYERAVLRKDHQKKYGATVDLWSIGVTFYHAATGSLPFRPFEGPRRNKEVMYKIITGKPSGAISGVQKAENGPIDWSGDMPVSCSLSRGLQVLLTPVLANILEADQEKCWGFDQFFAETSDILHRMVIHVFSLQQMTAHKIYIHSYNTATIFHELVYKQTKIISSNQELIYEGRRLVLEPGRLAQHFPKTTEENPIFVVSREPLNTIGLIYEKISLPKVHPRYDLDGDASMAKAITGVVCYACRIASTLLLYQELMRKGIRWLIELIKDDYNETVHKKTEVVITLDFCIRNIEKTVKVYEKLMKINLEAAELGEISDIHTKLLRLSSSQGTIETSLQDIDSRLSPGGSLADAWAHQEGTHPKDRNVEKLQVLLNCMTEIYYQFKKDKAERRLAYNEEQIHKFDKQKLYYHATKAMTHFTDECVKKYEAFLNKSEEWIRKMLHLRKQLLSLTNQCFDIEEEVSKYQEYTNELQETLPQKMFTASSGIKHTMTPIYPSSNTLVEMTLGMKKLKEEMEGVVKELAENNHILERFGSLTMDGGLRNVDCL
B2: GFP-tagged p.Ile334Thr TBK1 (enzyme, UniProt Q9UHD2 1-729)
chain: B1 chain with I334T

Protein sequences, listed by entry. Tags and fused reporters are not part of them.
UniProt Q96CV9: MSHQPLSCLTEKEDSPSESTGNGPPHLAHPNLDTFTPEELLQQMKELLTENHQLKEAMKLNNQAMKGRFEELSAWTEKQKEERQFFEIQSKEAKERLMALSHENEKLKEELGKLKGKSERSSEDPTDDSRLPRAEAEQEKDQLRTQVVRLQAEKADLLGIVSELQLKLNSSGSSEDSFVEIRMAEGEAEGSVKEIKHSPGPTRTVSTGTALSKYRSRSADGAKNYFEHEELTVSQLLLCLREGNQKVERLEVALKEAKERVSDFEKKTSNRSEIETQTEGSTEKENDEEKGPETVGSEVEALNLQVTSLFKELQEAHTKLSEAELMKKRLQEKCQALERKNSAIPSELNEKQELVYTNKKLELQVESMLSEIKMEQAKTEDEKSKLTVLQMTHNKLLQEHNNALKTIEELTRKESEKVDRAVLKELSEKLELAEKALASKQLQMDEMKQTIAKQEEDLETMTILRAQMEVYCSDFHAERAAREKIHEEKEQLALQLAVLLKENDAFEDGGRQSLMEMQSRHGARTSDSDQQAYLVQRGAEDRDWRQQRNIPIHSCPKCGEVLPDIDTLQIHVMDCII

Target: GST-OPTN (UniProt Q96CV9)
Experiment: pull-down; GST-OPTN from E. coli as bait, incubated with whole cell lysates of HEK293T cells transfected with GFP-TBK1 (wild type or p.Ile334Thr); GST Protein Interaction Pull-Down Kit (Thermo Scientific #21516); bound proteins detected by western blotting; only the target purified

Binder | binding
B1 | binds
B2 | binds

— article PMC6418353
